Laboratory results published in PubChem BioAssay AID602254 (Broad Institute, 2012).
In all, about 1,000 compounds went through this assay and fewer than 10 were called active.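 How the source made its calls: active means fitted half-maximal concentration no higher than twice the top valid tested dose, with signal falling; inconclusive means flat curve with 30 to 70% inhibition, or poor fit; inactive means the rest.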 The list shows a part of the results. Potency and affinity values are given separately. Residues, ends and D or L forms follow the SMILES beside them. *: point of attachment. Cbz = O=C(OCc1ccccc1)*

What follows are compounds tested against Golgi-associated PDZ and coiled-coil motif-containing protein (Homo sapiens) (UniProt Q9HD26) (assay: blockers of CAL PDZ–TMR peptide complex – biochemical, fluorescence polarization, untagged CAL PDZ, cherry-pick, set 2, dose response (AID 602254;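 further: 0% = DMSO neutral control and -100% = unlabeled peptide PRC23 positive control; more negative means stronger blocking of peptide binding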)). Details: Purified CAL PDZ; at 60 µM (top of the series).

Activity change, negative = inhibition, inactive:
COc1ccc(S(=O)(=O)N2CCCCCC2)cc1C(=O)OC(C)C(N)=O (stereo not drawn) 0.34%
C=CCNC(=S)N/N=C/c1ccc(OCc2ccccc2)cc1 -0.594%
CC(C)C1C(C#N)=C(N)Oc2n[nH]c(-c3cccs3)c21 (stereo not drawn) 15.6%
COC(=O)c1sc(-c2ccc(Cl)cc2)cc1NC(=O)COCC(=O)O 9.78%
Cc1cc(Cl)cc(C)c1OCC(=O)NC1CCCCCC1 10.5%
CC(C)CN1C(=O)c2ccc(NC(=O)Cc3ccccc3)cc2C1=O -2.46%
O=C(Nc1ccccc1)c1ccc2snnc2c1 0.794%
CC(C)[C@H](NC(=O)OC(C)(C)C)C(=O)N/N=C/c1ccc2nccnc2c1 -0.4%
CCC/C(=N\NC(=O)CNC(=O)c1ccc(Cl)cc1)c1ccccc1 -1.07%
CC(C)(C)C(=O)O/N=C(\N)Cc1ccc(-c2csnn2)cc1 -1.04%
COc1cccc(CN(C)C(=O)CN2C(=O)NC(c3ccccc3)(c3ccccc3)C2=O)c1 0.401%
CCSc1nnc(NC(=O)CCNC(=O)c2ccccc2Cl)s1 -1.72%
Cc1ccc(NC(=O)COc2ccccc2C(=O)NCCc2ccccc2)cc1 1.91%
O=C(CC(c1ccccc1)c1ccccc1)Nc1ccncc1 4.51%
CSc1cc(CS(=O)(=O)c2ccccc2)nc(-c2ccccc2)n1 -0.628%
CCN(CC)CCCNC(=O)c1cn(CC(C)C)c(=O)c2c1c1ccccc1n2C 0.819%
O=C(COc1ccc(F)cc1Br)N1CCN(S(=O)(=O)/C=C/c2ccccc2)CC1 -0.593%
Cc1nc(C)c(CC(=O)N/N=C/c2ccc(O)cc2)c(=O)[nH]1 -1.37%
COc1ccc2[nH]c(O)c(N=NC(=O)c3ccc(NS(=O)(=O)c4cccs4)cc3)c2c1 0.434%
COc1ccc(CC(=O)Nc2ccc(S(=O)(=O)Nc3cc(C)on3)cc2)cc1 2.22%
COc1cccc(/C=N/Nc2ccccc2C(=O)O)c1O -3.32%
COc1ccccc1NC(=O)C1CCN(C(=O)NCc2ccccc2)CC1 0.179%
COc1ccccc1C(=O)NNC(=O)c1ccc(NC(=O)C(C)C)cc1 -0.743%
OC(c1ccccc1)C(NCCNCc1ccccc1)c1ccccc1 (stereo not drawn) -1.33%
COc1ccc(CCNS(=O)(=O)c2ccc(-n3cnnn3)cc2)cc1OC 5.56%
COC(=O)c1c(NC(=O)CN(C)CC(=O)Nc2ccc(C)cc2)sc2c1CCC(C)C2 (stereo not drawn) 0.538%
O=C1CCCCCC1C1(O)C(=O)Nc2ccc(Br)cc21 (stereo not drawn) 2.8%
COC(=O)c1ccccc1NC(=O)c1ccc(NC(=O)C2CCCO2)cc1 (stereo not drawn) 2.93%
COCC(=O)N1CCC(Oc2ccc(C(=O)NCc3cnc(C)cn3)cc2)CC1 -0.601%
Cc1ccccc1-n1nc2c(c1NC(=O)c1cc3ccccc3oc1=O)CS(=O)C2 (stereo not drawn) 5.68%
CCC(C)C(NC(=O)C(C)NC(=O)CNC(=O)CNC(=O)OCc1ccccc1)C(=O)OC (stereo not drawn) (Cbz-GGAI-OMe; configuration not given here) -0.582%
O=C(OCC(=O)N1CCOCC1)c1ccc(O)cc1 3.76%
O=C(c1ccc(S(=O)(=O)NCC2CCCO2)cc1)N1CCN(c2ccccc2)CC1 (stereo not drawn) 0.625%
Cc1ccc(C)c(-n2cc(CNCCc3cnccn3)c(-c3ccccc3)n2)c1 -0.978%
CC1CCN(C(=O)COc2ncnc3ccccc23)CC1 -1.92%
COCCCNS(=O)(=O)c1ccc2c(c1)CCN2C(C)=O -3.66%
Cc1ccc(S(=O)(=O)N2CCCCC2)cc1NC(=O)COC(=O)C1(C)CC1(Cl)Cl (stereo not drawn) -0.101%
COc1cccc(/C=C2\SC(=S)N(CCCC(=O)N3CCCCC3CCO)C2=O)c1 (stereo not drawn) 1.87%
Cc1nc(Nc2ccc(C(=O)O)cc2)sc1-c1ccccc1 -4.64%
Cc1ccc(CNS(=O)(=O)c2ccc(C(F)(F)F)cc2)n1C -2.84%
CN(c1ccccc1)S(=O)(=O)c1cccc(C(=O)NCCc2c[nH]c3ccccc23)c1 -5.59%
CCN(CC)c1ccc(NS(=O)(=O)c2ccc(OC)cc2)cc1 -2.25%
Cc1ccc(N2CCN(CCCN3C(=O)C4CCCN4C3=O)CC2)cc1 (stereo not drawn) 3.42%
Cc1cccc(OCC(=O)N2CCCc3ccccc32)c1 0.078%
COC(=O)c1ccc(CN2C(=O)c3ccccc3S2(=O)=O)cc1 -0.049%
O=S(=O)(c1cc(C(F)(F)F)ccc1Cl)N1CCN(c2ncnc3ccccc23)CC1 0.682%
O=C(CN1CCC(n2nnc3cc(C(F)(F)F)ccc32)CC1)Nc1ccc2c(c1)OCCO2 -1.87%
CCc1ccc(NC(=O)c2ccc(NC(=O)C3CCCO3)cc2)cc1 (stereo not drawn) -0.654%
Cc1ccccc1Nc1nc(N)nc(CN2C(=O)NC3(CCCCC3C)C2=O)n1 (stereo not drawn) -1.03%
COC(=O)c1cc(S(=O)(=O)N2CCCC(C)C2)c[nH]1 (stereo not drawn) 1.02%
COc1ccc(C2N(c3cc(C)on3)C(=O)C3CCCN32)cc1OC (stereo not drawn) -3.68%
COc1ccccc1C(=O)NCCC(=O)NCC1CCCCC1 -0.027%
O=C(NC(=S)Nc1ccc(S(=O)(=O)Nc2nccs2)cc1)c1ccc(F)cc1 1.35%
O=C(c1cccc(Cl)c1)N1CCC(C(=O)N2CCN(Cc3ccccc3)CC2)CC1 -2.79%
CCCCC(NS(=O)(=O)c1ccc(OC)cc1)C(=O)O (stereo not drawn) -1.29%
CCOC(=O)C1CCN(c2nc(-c3ccc(C)cc3)nc3ccccc23)CC1 -0.524%
CC(=O)Nc1ccc(NC(=O)COC(=O)COc2ccc3ccccc3c2)cc1 -1.38%
CCC(C)[C@H](NC(=O)N1CCC(C)CC1)C(=O)OC (stereo partly drawn) -0.798%

Already shown: 2 of the compounds above.
Activity change, negative = inhibition, inactive:
COc1ccc2[nH]c(O)c(N=NC(=O)c3ccc(NS(=O)(=O)c4cccs4)cc3)c2c1 0.434%
COc1ccc(CC(=O)Nc2ccc(S(=O)(=O)Nc3cc(C)on3)cc2)cc1 2.22%
